{"sequences": {"note": "By UniProt entry, the sequences of proteins in these tests, tags left out. Residues count along the entry.", "UniProt Q8IFM5, residues 25-526": "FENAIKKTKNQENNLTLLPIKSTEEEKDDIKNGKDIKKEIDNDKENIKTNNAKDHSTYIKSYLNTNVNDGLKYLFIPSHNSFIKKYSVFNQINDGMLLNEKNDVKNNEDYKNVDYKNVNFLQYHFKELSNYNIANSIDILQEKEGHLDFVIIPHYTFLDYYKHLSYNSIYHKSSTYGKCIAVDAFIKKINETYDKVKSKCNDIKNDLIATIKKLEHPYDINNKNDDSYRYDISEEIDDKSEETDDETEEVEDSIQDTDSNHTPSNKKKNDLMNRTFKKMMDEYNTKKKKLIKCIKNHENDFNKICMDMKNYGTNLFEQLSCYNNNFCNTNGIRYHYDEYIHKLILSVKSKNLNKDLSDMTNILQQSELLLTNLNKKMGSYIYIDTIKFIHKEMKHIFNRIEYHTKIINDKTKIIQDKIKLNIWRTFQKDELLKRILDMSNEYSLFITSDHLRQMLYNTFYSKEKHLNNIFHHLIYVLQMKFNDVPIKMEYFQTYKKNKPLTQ"}, "source": "paper PMC5691159", "about": "(Nature Communications, 2017)", "binders": {"B1": {"name": "recombinant PfRhopH3-C protein (aa 617–865) with C-terminal hexa-Histidine tag (domain or fragment)", "chain": "QLSCFYPKEFELIKSRMIHPNIVDRILKGIDNLMKSTRYDKMRTMYLDFESSDIFSREKVFTALYNFDSFIKTNEQLKKKNLEEISEIPVQLETSNDGIGYRKQDVLYETDKPQTMDEASYEETVDEDAHHVNEKQHSAHFLDAIAEKDILEEKTKDQDLEIELYKYMGPLKEQSKSTSAASTSDEISGSEGPSTESTSTGNQGEDKTTDNTYKEMEELEEAEGTSNLKKGLEFYKSSLKLDQLDKEKP"}}, "key": {"[1]": {"molecular_target": "PfRh5 protein (P. falciparum) (UniProt Q8IFM5)", "experiment": "co-IP; Pierce Co-IP kit: antibody against the bait protein immobilised on coupling resin; mixture of bait and prey (PfRhopH3-C) proteins, 8 µg each, up to 4 h at 4 °C; prey detected by western blot; both purified"}, "[2]": {"molecular_target": "PfRh5 protein (P. falciparum) (UniProt Q8IFM5)", "experiment": "ELISA; bait protein coated overnight at 200 ng in carbonate/bicarbonate buffer pH 9.6; prey protein 100, 200, 400, 800 ng in 100 µl binding buffer (50 mM HEPES, 250 mM potassium acetate, 5 mM magnesium acetate, pH 8.0), 1 h at 37 °C; prey detected by antibody; both purified"}}, "note": "Results are given in words; binding and its absence hold for the method and conditions named. Some results given as binding are weak or reduced against the parent protein; the word gives no strength. Where a sequence is shown, tags or fusion partners need not be part of it."}
{"binder": "B1", "values": [{"measurement": "binding", "setting": "[1]", "value": "binds"}, {"measurement": "binding", "setting": "[2]", "value": "binds"}]}
